In paper PMC2965759:
Results are given in words; binding and its absence hold for the method and conditions named. In cells and extracts the contact can be indirect. Some entries that bind do so weakly or less than the wild type. Where a sequence is shown, tags or fusion partners need not be part of it.

Biological target: T1, NHK-1-GFP (nucleosomal histone kinase-1 fused to GFP) (Drosophila) (UniProt Q7KRY6)
T1 sequence: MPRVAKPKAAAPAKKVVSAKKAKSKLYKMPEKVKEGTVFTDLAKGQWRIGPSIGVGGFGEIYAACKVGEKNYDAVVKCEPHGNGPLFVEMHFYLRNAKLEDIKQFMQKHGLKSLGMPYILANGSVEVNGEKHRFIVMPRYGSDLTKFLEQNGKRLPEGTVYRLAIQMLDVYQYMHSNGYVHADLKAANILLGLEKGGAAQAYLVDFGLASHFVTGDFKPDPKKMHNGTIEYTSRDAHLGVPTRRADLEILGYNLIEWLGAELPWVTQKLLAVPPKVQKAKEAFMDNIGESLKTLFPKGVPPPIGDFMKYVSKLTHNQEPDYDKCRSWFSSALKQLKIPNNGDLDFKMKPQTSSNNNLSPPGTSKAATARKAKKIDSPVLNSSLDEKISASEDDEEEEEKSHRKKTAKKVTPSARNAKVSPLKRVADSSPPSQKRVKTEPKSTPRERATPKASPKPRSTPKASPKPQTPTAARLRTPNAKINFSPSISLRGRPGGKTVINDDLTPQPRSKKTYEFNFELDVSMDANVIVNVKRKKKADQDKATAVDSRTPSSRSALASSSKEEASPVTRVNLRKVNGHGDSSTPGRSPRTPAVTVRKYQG
Test: co-IP; NHK-1-GFP immunoprecipitated from cleared S2 cell lysate with mouse anti-GFP antibody (3E6) and protein G beads, 4°C; lysis buffer 20 mM Tris pH 7.5, 150 mM NaCl, 5 mM EGTA, 1 mM DTT, with protease and phosphatase inhibitors; co-immunoprecipitated BAF detected by in vitro phosphorylation with 32P-gamma-ATP and autoradiograph; cells irradiated with X-rays (1 Gy/min, 5 min) or not irradiated

B1: Barrier-to-Autointegration Factor (BAF) (protein, UniProt Q9VLU0 1-90)
chain: MSGTSQKHRNFVAEPMGNKSVTELAGIGETLGGRLKDAGFDMAYTVLGQYLVLKKDEELFKDWMKEVCHASSKQASDCYNCLNDWCEEFL
binding: binds
